According to patent publication US12351830B2, “Method for maintaining and amplifying colon cancer stem cells and method for inducing colon cancer organoid” (NATIONAL UNIVERSITY CORPORATION KOBE UNIVERSITY, priority 2017, dated 2025):
At least one structure is not confirmed: it was looked up by name or label, or the drawing left a doubt.

System: ABCG2, LGR5
Assay: quantitative RT-PCR of colon cancer stem cell markers in 2nd V50 cells
Assay type: cell-based, human
Conditions: adhesion culture, day 5 after passage, with vs without FK506

C=CC[C@@H]1/C=C(\C)C[C@H](C)C[C@H](OC)[C@H]2O[C@@](O)(C(=O)C(=O)N3CCCC[C@H]3C(=O)O[C@H](/C(C)=C/[C@@H]3CC[C@@H](O)[C@H](OC)C3)[C@H](C)[C@@H](O)CC1=O)[C@H](C)C[C@@H]2OC [FK506, FK506 (tacrolimus)]
expression of colon cancer stem cell marker (ABCG2, LGR5): increase the expression
